PubChem BioAssay AID686943 – Drosophila RNAi Screening Center | 2013
The screen tested about 23,000 reagents; shown is a random part of those that have a named target and a result. 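Extra replicates exist only for a retested subset of genes; insulin dose and duration not given; both raised and lowered dpERK matter.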 Reagents against one gene are numbered here. Names joined by + are all predicted targets of the reagent. Not all columns of the deposit are shown. Not stated in the record: the amount of reagent, the time to read-out.

Assay: 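Fly genes whose loss alters ERK activation after insulin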 (primary screen)
System: Drosophila S2R+ haemocyte-like cells expressing YFP-tagged ERK (Rolled)
Reagents: long dsRNA against Drosophila genes
Challenge: insulin stimulation versus unstimulated cells; dose and duration not given
Detection: 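Antibody staining for doubly phosphorylated ERK divided by ERK-YFP signal, as plate z-scores, in insulin-treated and untreated cells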
Direction: replicate 1, z-score of dpERK with insulin and replicate 2, z-score of dpERK with insulin: higher = more active ERK per ERK-YFP after insulin

slo #1
- replicate 1, z-score of dpERK with insulin: 0.65
- replicate 2, z-score of dpERK with insulin: 0.62

slo #2
- replicate 1, z-score of dpERK with insulin: -0.52
- replicate 2, z-score of dpERK with insulin: -0.42

slo #3
- replicate 1, z-score of dpERK with insulin: 0.36
- replicate 2, z-score of dpERK with insulin: 1.12

CG8051
- replicate 1, z-score of dpERK with insulin: -0.14
- replicate 2, z-score of dpERK with insulin: -0.19

CG9578
- replicate 1, z-score of dpERK with insulin: -0.41
- replicate 2, z-score of dpERK with insulin: 0.83

TTLL1A
- replicate 1, z-score of dpERK with insulin: 0.06
- replicate 2, z-score of dpERK with insulin: 0.25

hiw #1
- replicate 1, z-score of dpERK with insulin: 1.23
- replicate 2, z-score of dpERK with insulin: 0.53

hiw #2
- replicate 1, z-score of dpERK with insulin: -1.23
- replicate 2, z-score of dpERK with insulin: -0.68

bai
- replicate 1, z-score of dpERK with insulin: 0.44
- replicate 2, z-score of dpERK with insulin: 0

IFT20 + CG10395
- replicate 1, z-score of dpERK with insulin: 0.29
- replicate 2, z-score of dpERK with insulin: 0.5

CG33143 #1
- replicate 1, z-score of dpERK with insulin: 0.52
- replicate 2, z-score of dpERK with insulin: 0.44

CG33143 #2
- replicate 1, z-score of dpERK with insulin: -0.52
- replicate 2, z-score of dpERK with insulin: 0.08

CG3348
- replicate 1, z-score of dpERK with insulin: -0.26
- replicate 2, z-score of dpERK with insulin: 0.01

CG13465
- replicate 1, z-score of dpERK with insulin: 0.28
- replicate 2, z-score of dpERK with insulin: 0.19

mbt
- replicate 1, z-score of dpERK with insulin: -0.42
- replicate 2, z-score of dpERK with insulin: 0.46

CG1889 + CG43386
- replicate 1, z-score of dpERK with insulin: -0.2
- replicate 2, z-score of dpERK with insulin: 0.44

CG33922
- replicate 1, z-score of dpERK with insulin: 0.22
- replicate 2, z-score of dpERK with insulin: -0.2

Entries listed so far whose target name begins with H or h:
hiw #1
- replicate 1, z-score of dpERK with insulin: 1.23
- replicate 2, z-score of dpERK with insulin: 0.53

hiw #2
- replicate 1, z-score of dpERK with insulin: -1.23
- replicate 2, z-score of dpERK with insulin: -0.68

Additional results follow.
CG9514 #1
- replicate 1, z-score of dpERK with insulin: 0.31
- replicate 2, z-score of dpERK with insulin: 0.07

CG9514 #2
- replicate 1, z-score of dpERK with insulin: 0.48
- replicate 2, z-score of dpERK with insulin: 0.21

Tdc1
- replicate 1, z-score of dpERK with insulin: -1.66
- replicate 2, z-score of dpERK with insulin: -0.06

Vps24
- replicate 1, z-score of dpERK with insulin: -0.28
- replicate 2, z-score of dpERK with insulin: 1.89

timeout #1
- replicate 1, z-score of dpERK with insulin: 0.32
- replicate 2, z-score of dpERK with insulin: 0.67

timeout #2
- replicate 1, z-score of dpERK with insulin: -2.41
- replicate 2, z-score of dpERK with insulin: -0.21

timeout #3
- replicate 1, z-score of dpERK with insulin: 0.28
- replicate 2, z-score of dpERK with insulin: 0.28

timeout #4
- replicate 1, z-score of dpERK with insulin: 0.37
- replicate 2, z-score of dpERK with insulin: 0.38

timeout #5
- replicate 1, z-score of dpERK with insulin: 0.4
- replicate 2, z-score of dpERK with insulin: 0.45

timeout #6
- replicate 1, z-score of dpERK with insulin: 0.9
- replicate 2, z-score of dpERK with insulin: 0.11

CG31404
- replicate 1, z-score of dpERK with insulin: 0.29
- replicate 2, z-score of dpERK with insulin: 0

CG7011 + Prp31
- replicate 1, z-score of dpERK with insulin: -0.3
- replicate 2, z-score of dpERK with insulin: 0.58

CG31639
- replicate 1, z-score of dpERK with insulin: 0.68
- replicate 2, z-score of dpERK with insulin: -0.16

CG43078 #1
- replicate 1, z-score of dpERK with insulin: 0.9
- replicate 2, z-score of dpERK with insulin: 0.55

CG43078 #2
- replicate 1, z-score of dpERK with insulin: 0.21
- replicate 2, z-score of dpERK with insulin: 0.74

CG43078 #3
- replicate 1, z-score of dpERK with insulin: -0.11
- replicate 2, z-score of dpERK with insulin: 0.28

CG43078 #4
- replicate 1, z-score of dpERK with insulin: 0.89
- replicate 2, z-score of dpERK with insulin: 0.49
